No constants are given. Whether binding was seen depends on the method and setting. Binding seen in cells or lysates may run through a third protein. Some entries that bind do so weakly or less than the wild type. For some of these results: Tags and fused reporters may be left off the sequences shown.
Legend:
[1] = target: T1, Flag-ARAF (UniProt P10398); test: co-IP; 293T cells transfected with HA-ITCH and Flag-RAF or Flag-BRAF constructs; 10 µM MG132 for 12 h before harvest; lysis in EBC buffer, washes in NETN buffer
T1 sequence: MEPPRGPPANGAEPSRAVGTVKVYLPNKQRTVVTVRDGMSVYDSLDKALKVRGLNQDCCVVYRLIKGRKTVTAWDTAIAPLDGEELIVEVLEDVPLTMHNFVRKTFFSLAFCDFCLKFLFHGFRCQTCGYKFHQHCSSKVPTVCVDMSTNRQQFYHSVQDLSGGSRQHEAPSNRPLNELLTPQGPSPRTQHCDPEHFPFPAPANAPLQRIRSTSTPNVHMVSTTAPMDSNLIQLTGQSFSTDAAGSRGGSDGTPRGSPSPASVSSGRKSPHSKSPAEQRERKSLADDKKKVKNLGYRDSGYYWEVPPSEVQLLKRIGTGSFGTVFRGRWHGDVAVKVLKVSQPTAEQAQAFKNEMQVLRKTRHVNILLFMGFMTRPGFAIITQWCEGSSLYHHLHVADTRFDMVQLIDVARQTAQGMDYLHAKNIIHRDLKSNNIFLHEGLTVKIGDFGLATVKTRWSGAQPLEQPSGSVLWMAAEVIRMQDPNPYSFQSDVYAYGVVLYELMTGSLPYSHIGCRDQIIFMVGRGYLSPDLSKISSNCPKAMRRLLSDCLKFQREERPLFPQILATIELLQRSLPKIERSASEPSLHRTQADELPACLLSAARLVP

The chains behind the UniProt entries cited, without tags or fusion partners.
UniProt P15056: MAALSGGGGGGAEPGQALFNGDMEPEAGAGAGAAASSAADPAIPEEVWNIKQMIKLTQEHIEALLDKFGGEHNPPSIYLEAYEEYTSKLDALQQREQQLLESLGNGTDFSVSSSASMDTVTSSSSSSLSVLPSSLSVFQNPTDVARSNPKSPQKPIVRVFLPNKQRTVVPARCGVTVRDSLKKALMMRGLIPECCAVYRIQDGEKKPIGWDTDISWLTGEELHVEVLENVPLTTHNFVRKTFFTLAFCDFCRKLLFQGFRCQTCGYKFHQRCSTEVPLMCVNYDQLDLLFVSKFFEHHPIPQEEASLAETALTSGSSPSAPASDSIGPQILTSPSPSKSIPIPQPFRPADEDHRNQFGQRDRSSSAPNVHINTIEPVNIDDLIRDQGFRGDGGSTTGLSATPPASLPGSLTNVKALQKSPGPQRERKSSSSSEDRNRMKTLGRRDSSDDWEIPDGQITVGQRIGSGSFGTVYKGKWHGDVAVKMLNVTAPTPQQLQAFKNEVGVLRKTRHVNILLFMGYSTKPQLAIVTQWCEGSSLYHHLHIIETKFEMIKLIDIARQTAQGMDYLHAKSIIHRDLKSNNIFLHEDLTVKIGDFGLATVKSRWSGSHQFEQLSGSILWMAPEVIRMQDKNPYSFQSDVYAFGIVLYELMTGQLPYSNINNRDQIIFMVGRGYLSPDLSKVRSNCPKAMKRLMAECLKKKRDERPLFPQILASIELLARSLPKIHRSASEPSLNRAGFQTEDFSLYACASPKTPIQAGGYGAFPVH
UniProt Q8C863: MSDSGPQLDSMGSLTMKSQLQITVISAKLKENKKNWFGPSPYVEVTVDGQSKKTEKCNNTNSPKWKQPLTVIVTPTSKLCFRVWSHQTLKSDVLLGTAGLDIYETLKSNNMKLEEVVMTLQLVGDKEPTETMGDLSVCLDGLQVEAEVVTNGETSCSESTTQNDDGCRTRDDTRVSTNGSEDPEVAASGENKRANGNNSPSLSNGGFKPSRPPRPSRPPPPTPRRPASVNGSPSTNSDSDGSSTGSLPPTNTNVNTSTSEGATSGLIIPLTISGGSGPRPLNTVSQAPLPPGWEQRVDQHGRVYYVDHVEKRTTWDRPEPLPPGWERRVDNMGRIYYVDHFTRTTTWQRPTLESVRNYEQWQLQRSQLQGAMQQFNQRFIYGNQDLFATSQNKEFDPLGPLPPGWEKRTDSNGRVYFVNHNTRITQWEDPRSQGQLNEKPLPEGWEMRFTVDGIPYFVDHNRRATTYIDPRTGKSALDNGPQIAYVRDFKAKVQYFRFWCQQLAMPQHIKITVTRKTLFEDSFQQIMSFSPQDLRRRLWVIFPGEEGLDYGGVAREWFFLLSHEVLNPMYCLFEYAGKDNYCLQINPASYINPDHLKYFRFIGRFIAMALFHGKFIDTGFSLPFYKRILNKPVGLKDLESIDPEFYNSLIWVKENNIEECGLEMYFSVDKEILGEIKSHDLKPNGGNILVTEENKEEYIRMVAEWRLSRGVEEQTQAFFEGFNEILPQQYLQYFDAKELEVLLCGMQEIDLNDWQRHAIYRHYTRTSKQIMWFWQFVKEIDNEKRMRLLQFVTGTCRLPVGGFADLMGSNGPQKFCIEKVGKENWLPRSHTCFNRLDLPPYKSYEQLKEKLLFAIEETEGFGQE

[2] = target: Flag-CRAF (UniProt P04049); test: as above
[3] = target: Flag-BRAF (wild type) (UniProt P15056); test: as above
[4] = target: GST-ITCH (UniProt Q8C863); test: pull-down; agarose-bound GST fusion proteins incubated with in vitro transcribed and translated HA-BRAF, 4 °C, 3-4 h, washes in NETN buffer; only the target purified

binding [1]	binding [2]	binding [3]	binding [4]	Substance
binds	binds	binds		HA-ITCH (from UniProt Q8C863 1-864) (enzyme)
			binds	In vitro transcribed and translated HA-BRAF (from UniProt P15056 1-766)

Reference: paper PMC6478693
